These are yes or no findings as the source states them, for the method shown. A result given as binding can be weak or reduced; the word gives no strength.
Columns and labels:
[1] = target: Bovine βH crystallin (bovine); test: protein pin array ELISA, A450; listed as peak peptide with unheated and pre-heated target
[2] = target: Bovine βH crystallin (bovine); test: protein pin array ELISA, A450, unheated βH crystallin; similar maxima pre-heated at 45° C
[3] = target: Bovine βH crystallin (bovine); test: protein pin array

Measured: binding

HGKHEERQDE […]
binds: [1] | [1]; record 2 | [1]; record 3 | [1]; record 4 | [1]; record 5 | [1]; record 6 | [1]; record 7 | [1]; record 8 | [1]; record 9 | [1]; record 10 | [1]; record 11 | [2] | [2]; record 2 | [2]; record 3 | [2]; record 4 | [2]; record 5 | [2]; record 6 | [2]; record 7 | [2]; record 8 | [2]; record 9 | [2]; record 10 | [2]; record 11 | [3] | [3]; record 2 | [3]; record 3

Reference: patent publication US20070185028A1, “Compositions and methods for treatment of protein misfolding and protein aggregation diseases” (priority 2004, published 2007)
